Assay results: publication PMC4482080
No constants are given. Whether binding was seen depends on the method and setting. In cells and extracts the contact can be indirect. Some binding calls cover weakened binding; strength is not graded here. Each block holds one substance with its values, some of them ahead of it.

The chains behind the UniProt entries cited, without tags or fusion partners.
UniProt Q7Z6Z7: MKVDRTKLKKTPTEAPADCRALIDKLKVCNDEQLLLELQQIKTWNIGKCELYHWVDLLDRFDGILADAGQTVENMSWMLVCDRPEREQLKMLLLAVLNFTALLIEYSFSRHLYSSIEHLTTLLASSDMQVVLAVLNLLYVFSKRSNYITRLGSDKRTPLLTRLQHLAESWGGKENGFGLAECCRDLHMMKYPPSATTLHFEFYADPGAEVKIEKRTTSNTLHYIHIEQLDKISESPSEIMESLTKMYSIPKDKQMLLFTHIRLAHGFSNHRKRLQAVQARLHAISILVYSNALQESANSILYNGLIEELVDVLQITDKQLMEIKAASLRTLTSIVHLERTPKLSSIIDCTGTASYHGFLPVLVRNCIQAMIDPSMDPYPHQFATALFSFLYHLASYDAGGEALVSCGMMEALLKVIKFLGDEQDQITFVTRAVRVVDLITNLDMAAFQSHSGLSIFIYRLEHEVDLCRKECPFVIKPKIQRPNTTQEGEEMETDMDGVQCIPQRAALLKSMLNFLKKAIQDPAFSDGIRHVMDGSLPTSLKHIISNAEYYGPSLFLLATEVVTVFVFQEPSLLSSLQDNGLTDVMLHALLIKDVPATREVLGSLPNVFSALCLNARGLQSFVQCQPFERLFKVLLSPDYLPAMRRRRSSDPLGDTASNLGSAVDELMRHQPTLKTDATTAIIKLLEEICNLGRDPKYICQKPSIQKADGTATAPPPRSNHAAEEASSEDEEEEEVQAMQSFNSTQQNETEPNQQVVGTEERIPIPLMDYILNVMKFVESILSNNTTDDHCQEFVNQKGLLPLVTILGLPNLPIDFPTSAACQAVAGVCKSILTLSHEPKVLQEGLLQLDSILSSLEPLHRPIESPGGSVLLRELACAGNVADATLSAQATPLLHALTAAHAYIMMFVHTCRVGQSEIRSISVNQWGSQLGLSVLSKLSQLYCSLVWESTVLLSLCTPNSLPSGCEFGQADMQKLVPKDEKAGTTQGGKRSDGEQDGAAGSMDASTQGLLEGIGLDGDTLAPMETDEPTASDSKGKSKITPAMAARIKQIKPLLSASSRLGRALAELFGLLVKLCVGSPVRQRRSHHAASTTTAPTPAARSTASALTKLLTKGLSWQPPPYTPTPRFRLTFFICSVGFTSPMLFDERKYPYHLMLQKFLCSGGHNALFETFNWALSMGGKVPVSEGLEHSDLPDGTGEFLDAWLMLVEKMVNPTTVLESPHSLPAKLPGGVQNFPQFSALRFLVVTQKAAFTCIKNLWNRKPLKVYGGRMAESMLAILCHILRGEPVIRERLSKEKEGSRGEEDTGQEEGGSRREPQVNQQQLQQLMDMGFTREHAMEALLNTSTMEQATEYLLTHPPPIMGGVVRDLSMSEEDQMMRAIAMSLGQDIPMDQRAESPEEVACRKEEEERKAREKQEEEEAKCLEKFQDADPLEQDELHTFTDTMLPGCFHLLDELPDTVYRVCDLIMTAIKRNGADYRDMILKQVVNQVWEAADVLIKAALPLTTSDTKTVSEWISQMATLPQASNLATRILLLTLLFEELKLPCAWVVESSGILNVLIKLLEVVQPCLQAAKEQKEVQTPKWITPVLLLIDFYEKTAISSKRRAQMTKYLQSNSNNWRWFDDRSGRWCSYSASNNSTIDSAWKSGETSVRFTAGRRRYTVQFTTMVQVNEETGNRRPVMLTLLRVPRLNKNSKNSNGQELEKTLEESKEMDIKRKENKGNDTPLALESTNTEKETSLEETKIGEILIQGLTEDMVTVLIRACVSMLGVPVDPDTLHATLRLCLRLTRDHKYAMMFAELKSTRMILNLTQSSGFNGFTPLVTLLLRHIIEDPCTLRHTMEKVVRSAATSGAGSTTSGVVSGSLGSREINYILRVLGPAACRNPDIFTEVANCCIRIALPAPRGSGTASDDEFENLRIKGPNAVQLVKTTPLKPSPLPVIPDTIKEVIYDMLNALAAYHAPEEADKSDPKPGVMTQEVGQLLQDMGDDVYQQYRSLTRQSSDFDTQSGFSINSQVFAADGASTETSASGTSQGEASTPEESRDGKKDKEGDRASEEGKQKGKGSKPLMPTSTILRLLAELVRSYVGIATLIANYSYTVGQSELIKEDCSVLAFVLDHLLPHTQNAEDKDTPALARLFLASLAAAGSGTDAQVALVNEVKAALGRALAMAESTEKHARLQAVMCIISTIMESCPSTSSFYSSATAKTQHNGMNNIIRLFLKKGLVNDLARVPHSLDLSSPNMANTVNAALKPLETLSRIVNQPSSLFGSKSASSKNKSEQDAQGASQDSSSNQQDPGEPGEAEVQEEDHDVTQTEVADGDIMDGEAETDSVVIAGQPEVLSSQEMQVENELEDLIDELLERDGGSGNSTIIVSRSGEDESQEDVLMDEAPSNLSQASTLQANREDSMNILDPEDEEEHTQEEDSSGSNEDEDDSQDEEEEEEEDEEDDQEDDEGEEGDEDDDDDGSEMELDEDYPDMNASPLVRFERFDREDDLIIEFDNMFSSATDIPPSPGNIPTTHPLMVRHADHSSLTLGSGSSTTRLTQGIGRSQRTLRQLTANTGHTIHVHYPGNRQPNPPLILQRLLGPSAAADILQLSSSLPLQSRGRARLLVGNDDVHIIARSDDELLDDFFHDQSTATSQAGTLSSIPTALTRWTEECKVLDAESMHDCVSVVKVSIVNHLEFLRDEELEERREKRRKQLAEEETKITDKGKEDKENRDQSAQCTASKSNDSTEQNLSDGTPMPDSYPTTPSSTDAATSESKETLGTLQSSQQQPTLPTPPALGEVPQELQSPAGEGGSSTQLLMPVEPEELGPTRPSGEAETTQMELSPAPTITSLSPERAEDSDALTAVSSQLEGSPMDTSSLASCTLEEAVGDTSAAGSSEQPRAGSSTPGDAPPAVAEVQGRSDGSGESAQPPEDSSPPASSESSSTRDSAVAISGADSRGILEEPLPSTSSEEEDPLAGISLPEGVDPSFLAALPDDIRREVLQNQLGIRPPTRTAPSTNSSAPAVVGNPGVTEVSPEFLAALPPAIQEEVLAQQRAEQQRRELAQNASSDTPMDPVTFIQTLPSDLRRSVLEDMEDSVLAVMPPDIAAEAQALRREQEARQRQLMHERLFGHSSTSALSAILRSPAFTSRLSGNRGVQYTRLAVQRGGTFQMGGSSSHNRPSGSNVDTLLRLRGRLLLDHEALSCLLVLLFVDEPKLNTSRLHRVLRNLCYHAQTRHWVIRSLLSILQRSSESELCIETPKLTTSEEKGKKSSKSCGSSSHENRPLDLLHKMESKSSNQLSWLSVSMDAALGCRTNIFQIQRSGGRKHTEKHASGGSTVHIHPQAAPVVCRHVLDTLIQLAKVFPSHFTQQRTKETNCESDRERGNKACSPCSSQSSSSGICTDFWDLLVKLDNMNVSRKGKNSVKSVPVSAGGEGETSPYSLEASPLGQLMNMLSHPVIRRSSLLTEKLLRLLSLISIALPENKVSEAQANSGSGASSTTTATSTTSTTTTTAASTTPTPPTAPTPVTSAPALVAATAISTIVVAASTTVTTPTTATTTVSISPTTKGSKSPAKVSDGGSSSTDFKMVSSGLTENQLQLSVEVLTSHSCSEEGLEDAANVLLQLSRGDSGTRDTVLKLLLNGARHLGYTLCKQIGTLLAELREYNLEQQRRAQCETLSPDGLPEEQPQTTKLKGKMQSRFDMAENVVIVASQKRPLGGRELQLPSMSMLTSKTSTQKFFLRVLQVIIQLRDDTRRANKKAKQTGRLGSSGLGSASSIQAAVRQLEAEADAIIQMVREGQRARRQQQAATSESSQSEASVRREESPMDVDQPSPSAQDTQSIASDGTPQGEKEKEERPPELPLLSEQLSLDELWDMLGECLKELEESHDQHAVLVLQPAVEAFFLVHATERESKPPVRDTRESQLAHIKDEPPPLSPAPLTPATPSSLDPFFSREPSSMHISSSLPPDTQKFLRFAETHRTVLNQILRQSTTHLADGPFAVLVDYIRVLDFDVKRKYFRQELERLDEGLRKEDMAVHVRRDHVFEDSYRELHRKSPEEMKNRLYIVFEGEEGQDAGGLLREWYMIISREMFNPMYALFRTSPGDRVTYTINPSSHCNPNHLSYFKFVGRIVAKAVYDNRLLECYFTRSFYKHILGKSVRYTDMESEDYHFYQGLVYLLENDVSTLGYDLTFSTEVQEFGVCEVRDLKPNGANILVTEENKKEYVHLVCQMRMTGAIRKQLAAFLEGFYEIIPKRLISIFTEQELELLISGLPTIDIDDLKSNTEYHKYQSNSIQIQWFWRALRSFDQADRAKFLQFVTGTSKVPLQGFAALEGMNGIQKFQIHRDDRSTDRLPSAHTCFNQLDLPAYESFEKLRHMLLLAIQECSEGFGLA
UniProt Q13620: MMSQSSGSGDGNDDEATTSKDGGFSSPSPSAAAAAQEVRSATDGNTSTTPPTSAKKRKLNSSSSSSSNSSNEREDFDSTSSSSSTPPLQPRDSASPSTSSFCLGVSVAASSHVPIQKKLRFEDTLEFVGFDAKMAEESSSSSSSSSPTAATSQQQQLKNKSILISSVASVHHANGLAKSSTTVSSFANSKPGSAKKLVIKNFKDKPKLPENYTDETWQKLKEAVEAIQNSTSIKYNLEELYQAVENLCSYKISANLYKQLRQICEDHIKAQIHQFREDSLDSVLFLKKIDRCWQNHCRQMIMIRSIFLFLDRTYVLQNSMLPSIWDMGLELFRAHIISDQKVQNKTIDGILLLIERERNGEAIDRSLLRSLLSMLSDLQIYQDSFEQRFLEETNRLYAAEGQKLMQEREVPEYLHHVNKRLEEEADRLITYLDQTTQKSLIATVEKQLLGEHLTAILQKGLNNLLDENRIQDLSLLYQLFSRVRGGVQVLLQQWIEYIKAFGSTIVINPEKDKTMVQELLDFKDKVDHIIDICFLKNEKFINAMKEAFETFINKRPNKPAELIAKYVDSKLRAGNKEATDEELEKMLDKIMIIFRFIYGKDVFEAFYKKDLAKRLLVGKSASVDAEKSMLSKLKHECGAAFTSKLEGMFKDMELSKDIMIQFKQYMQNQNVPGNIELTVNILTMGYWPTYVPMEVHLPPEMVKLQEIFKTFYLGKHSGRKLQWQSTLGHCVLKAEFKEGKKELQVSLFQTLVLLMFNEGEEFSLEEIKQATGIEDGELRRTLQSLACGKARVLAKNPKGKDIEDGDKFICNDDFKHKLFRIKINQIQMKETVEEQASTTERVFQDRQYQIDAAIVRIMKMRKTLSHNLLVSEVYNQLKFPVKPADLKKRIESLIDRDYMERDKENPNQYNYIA
UniProt Q16531: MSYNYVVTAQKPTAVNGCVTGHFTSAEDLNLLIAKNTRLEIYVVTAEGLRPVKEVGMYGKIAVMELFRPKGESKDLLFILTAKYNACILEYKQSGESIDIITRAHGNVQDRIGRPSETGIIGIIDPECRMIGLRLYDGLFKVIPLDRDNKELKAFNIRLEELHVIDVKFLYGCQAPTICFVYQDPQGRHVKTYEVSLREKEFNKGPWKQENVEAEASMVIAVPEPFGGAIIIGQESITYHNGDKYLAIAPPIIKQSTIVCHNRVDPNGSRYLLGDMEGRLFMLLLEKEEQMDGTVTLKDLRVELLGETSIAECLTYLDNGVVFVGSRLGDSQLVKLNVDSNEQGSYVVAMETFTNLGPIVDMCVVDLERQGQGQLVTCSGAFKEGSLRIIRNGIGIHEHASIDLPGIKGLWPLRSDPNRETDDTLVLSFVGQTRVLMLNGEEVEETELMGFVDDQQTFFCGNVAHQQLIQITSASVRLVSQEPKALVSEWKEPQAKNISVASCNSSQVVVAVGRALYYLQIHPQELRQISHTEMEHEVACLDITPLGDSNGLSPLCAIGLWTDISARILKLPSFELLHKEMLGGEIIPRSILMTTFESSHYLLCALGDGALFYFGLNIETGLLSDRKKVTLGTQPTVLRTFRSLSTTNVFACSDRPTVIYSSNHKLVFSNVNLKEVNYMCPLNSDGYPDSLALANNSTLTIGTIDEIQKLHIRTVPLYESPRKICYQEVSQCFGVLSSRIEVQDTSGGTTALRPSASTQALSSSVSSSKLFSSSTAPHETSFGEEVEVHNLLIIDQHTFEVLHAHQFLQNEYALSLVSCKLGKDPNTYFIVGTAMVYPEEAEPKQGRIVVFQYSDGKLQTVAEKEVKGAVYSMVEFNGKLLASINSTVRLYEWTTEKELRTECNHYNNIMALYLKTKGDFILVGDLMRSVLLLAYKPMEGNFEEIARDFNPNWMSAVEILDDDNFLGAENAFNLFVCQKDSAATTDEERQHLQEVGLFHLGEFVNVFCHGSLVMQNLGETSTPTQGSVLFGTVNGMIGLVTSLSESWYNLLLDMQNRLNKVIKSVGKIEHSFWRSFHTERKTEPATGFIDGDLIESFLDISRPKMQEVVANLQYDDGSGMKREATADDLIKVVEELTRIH

Legend:
Flag-HA-HUWE1 = Flag-HA-HUWE1 (UniProt Q7Z6Z7); assay: co-IP; 293T cells cotransfected; the Flag-tagged protein pulled down with anti-FLAG M2 agarose; immunoblot
[1] = molecular target: HUWE1 (endogenous) (human (endogenous in HeLa)) (UniProt Q7Z6Z7); assay: co-IP; endogenous proteins from HeLa cell lysates; IP with CUL4B antibodies or normal IgG, or with a polyclonal antibody against HUWE1; cells treated with or without MLN4924; immunoblot
[2] = molecular target: Flag-HA-CUL4B (transiently expressed in 293T cells) (human) (UniProt Q13620); assay: co-IP; 293T cells cotransfected; the Flag-tagged protein pulled down with anti-FLAG M2 agarose; immunoblot
[3] = molecular target: Flag-HA-tagged CUL4B (stably expressed in HeLa S3 cells) (human) (UniProt Q13620); assay: co-IP; Flag-HA-tagged CUL4B immunoprecipitated from HeLa S3 cells that stably express it; endogenous HUWE1 detected
[4] = molecular target: CUL4B (endogenous) (human (endogenous in HeLa)) (UniProt Q13620); assay: co-IP; endogenous proteins from HeLa cell lysates; IP with CUL4B antibodies or normal IgG, or with a polyclonal antibody against HUWE1; cells treated with or without MLN4924; immunoblot

binding (Flag-HA-HUWE1): binds
Substance: V5-DDB1 (from UniProt Q16531 1-1140)

binding [1]: binds weakly
Substance: CUL4B (endogenous) (from UniProt Q13620 1-913)

binding [2]: binds weakly
Substance: EYFP-HUWE1 (from UniProt Q7Z6Z7 1-4374)

binding [3]: binds
binding [4]: binds weakly
Substance: HUWE1 (endogenous) (from UniProt Q7Z6Z7 1-4374)
